From paper PMC8298264, “Function of cofactor Akirin2 in the regulation of gene expression in model human neutrophil-like HL60 cells” (Bioscience Reports, 2021)

test system: human HL60 cells; experiment: SWATH-MS proteomics, differential protein representation, akirin2 KO vs WT HL60 cells; format: cell-based; conditions: akirin2 KO vs WT HL60 cells, SWATH-MS; sheet "Under-represented in KO"
Method: Total proteins were extracted from WT and akirin2 KO HL60 cells using the AllPrep DNA/RNA/Protein Mini Kit (Qiagen) and protein concentration was determined using the BCA Protein Assay with BSA (Sigma–Aldrich) as standard. Protein extracts (150 µg per sample, n=3 biological replicates) from each WT and KO cells were trypsin digested using the FASP Protein Digestion Kit (Expedeon Ltd., Abcam, Cambridge, U.K.) and sequencing grade trypsin (Promega, Madison, WI, U.S.A.) following manufacturer’s recommendations. The resulting peptides were finally desalted on to OMIX Pipette tips C18 (Agilent Technologies, Santa Clara, CA, U.S.A.), dried down and stored at −20 °C until mass spectrometry analysis. […] Three micrograms of each protein digest from the three biological replicates of WT and akirin2 KO HL60 cells were used for the generation of the reference spectral ion library as part of the SWATH-MS analysis.
Peptides were eluted in a 120-min gradient from 5 to 30% solvent B in solvent A followed by 15-min gradient from 30 to 60% solvent B in solvent A (solvent A: 0.1% formic acid in water, solvent B: 0.1% formic acid in acetonitrile) and directly injected into the mass spectrometer for analysis. For IDA experiments, the mass spectrometer was set to scanning full spectra (350–1400 m/z) using 250 ms accumulation time per spectrum, followed by up to 50 MS/MS scans (100–1500 m/z). Candidate ions with a charge state between +2 and +5 counts per second above a minimum threshold of 100 were isolated for fragmentation. One MS/MS spectrum was collected for 100 ms, before adding those precursor ions to the exclusion list for 15 s (mass spectrometer operated by Analyst TF 1.6, AB Sciex). Dynamic background subtraction was turned off. MS/MS analyses were recorded in high-sensitivity mode with rolling collision energy on and a collision energy spread of 5. For SWATH quantitative analysis, six independent samples (three replicates from WT and akirin2 KO HL60 cells, 5 µg each) were subjected to the cyclic DIA of mass spectra using the SWATH variable windows calculator (V 1.0, AB Sciex) and the SWATH acquisition method editor (AB Sciex), similar to established methods. […] For these experiments, a 50-ms survey scan (350–1400 m/z) was acquired at the beginning of each cycle, and SWATH–MS/MS spectra were collected from 100–1500 m/z for 70 ms at high-sensitivity mode, resulting in a cycle time of 3.6 s. Collision energy for each window was determined according to the calculation for a charge +2 ion-centered upon the window with a collision energy spread of 15. To create a spectral library of all the detectable peptides in the samples, the IDA MS raw files were combined and subjected to database search in unison using ProteinPilot software v. 5.0.1 (AB Sciex) with the Paragon algorithm. […] The detected protein threshold was set at 0.05. An independent false discovery rate (FDR) analysis, using the target–decoy approach provided by Protein Pilot (AB Sciex; https://sciex.com/products/software/proteinpilot-software), was used to assess the quality of identifications. Positive identifications were considered when identified proteins reached 1% of global FDR. […] Global normalization was performed according to the Total Area Sums (TAS) of all detected proteins in the samples. […] Heatmaps were prepared using the Heatmapper (http://www.heatmapper.ca/expression/) with average linkage and Euclidean distance measurement method.

| Molecule | Fold Change | Log (Fold Change) |
| --- | --- | --- |
| sp¦Q9NSD9¦SYFB_HUMAN (protein, UniProt Q9NSD9 1-589, looked up) Phenylalanine--tRNA ligase …: MPTVSVKRDLLFQALGRTYTDEEFDELCFEFGLELDEITSEKEIISKEQGNVKAAGASDVVLYKIDVPANRYDLLCLEGLVRGLQVFKERIKAPVYKRVMPDGKIQKLIITEETAKIRPFAVAAVLRNIKFTKDRYDSFIELQEKLHQNICRKRALVAIGTHDLDTLSGPFTYTAKRPSDIKFKPLNKTKEYTACELMNIYKTDNHLKHYLHIIENKPLYPVIYDSNGVVLSMPPIINGDHSRITVNTRNIFIECTGTDFTKAKIVLDIIVTMFSEYCENQFTVEAAEVVFPNGKSHTFPELAYRKEMVRADLINKKVGIRETPENLAKLLTRMYLKSEVIGDGNQIEIEIPPTRADIIHACDIVEDAAIAYGYNNIQMTLPKTYTIANQFPLNKLTELLRHDMAAAGFTEALTFALCSQEDIADKLGVDISATKAVHISNPKTAEFQVARTTLLPGLLKTIAANRKMPLPLKLFEISDIVIKDSNTDVGAKNYRHLCAVYYNKNPGFEIIHGLLDRIMQLLDVPPGEDKGGYVIKASEGPAFFPGRCAEIFARGQSVGKLGVLHPDVITKFELTMPCSSLEINVGPFL | 0.8202 | -0.0861 |
| sp¦P11216¦PYGB_HUMAN (protein, UniProt P11216 2-843, looked up) Glycogen phosphorylase, brain …: AKPLTDSEKRKQISVRGLAGLGDVAEVRKSFNRHLHFTLVKDRNVATPRDYFFALAHTVRDHLVGRWIRTQQHYYERDPKRIYYLSLEFYMGRTLQNTMVNLGLQNACDEAIYQLGLDLEELEEIEEDAGLGNGGLGRLAACFLDSMATLGLAAYGYGIRYEFGIFNQKIVNGWQVEEADDWLRYGNPWEKARPEYMLPVHFYGRVEHTPDGVKWLDTQVVLAMPYDTPVPGYKNNTVNTMRLWSAKAPNDFKLQDFNVGDYIEAVLDRNLAENISRVLYPNDNFFEGKELRLKQEYFVVAATLQDIIRRFKSSKFGCRDPVRTCFETFPDKVAIQLNDTHPALSIPELMRILVDVEKVDWDKAWEITKKTCAYTNHTVLPEALERWPVSMFEKLLPRHLEIIYAINQRHLDHVAALFPGDVDRLRRMSVIEEGDCKRINMAHLCVIGSHAVNGVARIHSEIVKQSVFKDFYELEPEKFQNKTNGITPRRWLLLCNPGLADTIVEKIGEEFLTDLSQLKKLLPLVSDEVFIRDVAKVKQENKLKFSAFLEKEYKVKINPSSMFDVHVKRIHEYKRQLLNCLHVVTLYNRIKRDPAKAFVPRTVMIGGKAAPGYHMAKLIIKLVTSIGDVVNHDPVVGDRLKVIFLENYRVSLAEKVIPAADLSQQISTAGTEASGTGNMKFMLNGALTIGTMDGANVEMAEEAGAENLFIFGLRVEDVEALDRKGYNAREYYDHLPELKQAVDQISSGFFSPKEPDCFKDIVNMLMHHDRFKVFADYEAYMQCQAQVDQLYRNPKEWTKKVIRNIACSGKFSSDRTITEYAREIWGVEPSDLQIPPPNIPRD | 0.8252 | -0.08342 |
| sp¦Q9HAV7¦GRPE1_HUMAN (protein, UniProt Q9HAV7 28-217, looked up) GrpE protein homolog 1, …: CTATKQKNSGQNLEEDMGQSEQKADPPATEKTLLEEKVKLEEQLKETVEKYKRALADTENLRQRSQKLVEEAKLYGIQAFCKDLLEVADVLEKATQCVPKEEIKDDNPHLKNLYEGLVMTEVQIQKVFTKHGLLKLNPVGAKFDPYEHEALFHTPVEGKEPGTVALVSKVGYKLHGRTLRPALVGVVKEA | 0.8165 | -0.08804 |
| sp¦O43865¦SAHH2_HUMAN (protein, UniProt O43865 2-530, looked up) S-adenosylhomocysteine …: SMPDAMPLPGVGEELKQAKEIEDAEKYSFMATVTKAPKKQIQFADDMQEFTKFPTKTGRRSLSRSISQSSTDSYSSAASYTDSSDDEVSPREKQQTNSKGSSNFCVKNIKQAEFGRREIEIAEQDMSALISLRKRAQGEKPLAGAKIVGCTHITAQTAVLIETLCALGAQCRWSACNIYSTQNEVAAALAEAGVAVFAWKGESEDDFWWCIDRCVNMDGWQANMILDDGGDLTHWVYKKYPNVFKKIRGIVEESVTGVHRLYQLSKAGKLCVPAMNVNDSVTKQKFDNLYCCRESILDGLKRTTDVMFGGKQVVVCGYGEVGKGCCAALKALGAIVYITEIDPICALQACMDGFRVVKLNEVIRQVDVVITCTGNKNVVTREHLDRMKNSCIVCNMGHSNTEIDVTSLRTPELTWERVRSQVDHVIWPDGKRVVLLAEGRLLNLSCSTVPTFVLSITATTQALALIELYNAPEGRYKQDVYLLPKKMDEYVASLHLPSFDAHLTELTDDQAKYLGLNKNGPFKPNYYRY | 0.8156 | -0.08853 |
| sp¦Q9Y3L3¦3BP1_HUMAN (protein, UniProt Q9Y3L3 1-701, looked up) SH3 domain-binding protein 1: MMKRQLHRMRQLAQTGSLGRTPETAEFLGEDLLQVEQRLEPAKRAAHNIHKRLQACLQGQSGADMDKRVKKLPLMALSTTMAESFKELDPDSSMGKALEMSCAIQNQLARILAEFEMTLERDVLQPLSRLSEEELPAILKHKKSLQKLVSDWNTLKSRLSQATKNSGSSQGLGGSPGSHSHTTMANKVETLKEEEEELKRKVEQCRDEYLADLYHFVTKEDSYANYFIRLLEIQADYHRRSLSSLDTALAELRENHGQADHSPSMTATHFPRVYGVSLATHLQELGREIALPIEACVMMLLSEGMKEEGLFRLAAGASVLKRLKQTMASDPHSLEEFCSDPHAVAGALKSYLRELPEPLMTFDLYDDWMRAASLKEPGARLQALQEVCSRLPPENLSNLRYLMKFLARLAEEQEVNKMTPSNIAIVLGPNLLWPPEKEGDQAQLDAASVSSIQVVGVVEALIQSADTLFPGDINFNVSGLFSAVTLQDTVSDRLASEELPSTAVPTPATTPAPAPAPAPAPAPALASAATKERTESEVPPRPASPKVTRSPPETAAPVEDMARRTKRPAPARPTMPPPQVSGSRSSPPAPPLPPGSGSPGTPQALPRRLVGSSLRAPTVPPPLPPTPPQPARRQSRRSPASPSPASPGPASPSPVSLSNPAQVDLGAATAEGGAPEAISGVPTPPAIPPQPRPRSLASETN | 0.8194 | -0.08649 |
| sp¦O00743¦PPP6_HUMAN (protein, UniProt O00743 1-305, looked up) Serine/threonine-protein …: MAPLDLDKYVEIARLCKYLPENDLKRLCDYVCDLLLEESNVQPVSTPVTVCGDIHGQFYDLCELFRTGGQVPDTNYIFMGDFVDRGYYSLETFTYLLALKAKWPDRITLLRGNHESRQITQVYGFYDECQTKYGNANAWRYCTKVFDMLTVAALIDEQILCVHGGLSPDIKTLDQIRTIERNQEIPHKGAFCDLVWSDPEDVDTWAISPRGAGWLFGAKVTNEFVHINNLKLICRAHQLVHEGYKFMFDEKLVTVWSAPNYCYRCGNIASIMVFKDVNTREPKLFRAVPDSERVIPPRTTTPYFL | 0.8271 | -0.08246 |
| sp¦Q86VP6¦CAND1_HUMAN (protein, UniProt Q86VP6 2-1230, looked up) Cullin-associated …: ASASYHISNLLEKMTSSDKDFRFMATNDLMTELQKDSIKLDDDSERKVVKMILKLLEDKNGEVQNLAVKCLGPLVSKVKEYQVETIVDTLCTNMLSDKEQLRDISSIGLKTVIGELPPASSGSALAANVCKKITGRLTSAIAKQEDVSVQLEALDIMADMLSRQGGLLVNFHPSILTCLLPQLTSPRLAVRKRTIIALGHLVMSCGNIVFVDLIEHLLSELSKNDSMSTTRTYIQCIAAISRQAGHRIGEYLEKIIPLVVKFCNVDDDELREYCIQAFESFVRRCPKEVYPHVSTIINICLKYLTYDPNYNYDDEDEDENAMDADGGDDDDQGSDDEYSDDDDMSWKVRRAAAKCLDAVVSTRHEMLPEFYKTVSPALISRFKEREENVKADVFHAYLSLLKQTRPVQSWLCDPDAMEQGETPLTMLQSQVPNIVKALHKQMKEKSVKTRQCCFNMLTELVNVLPGALTQHIPVLVPGIIFSLNDKSSSSNLKIDALSCLYVILCNHSPQVFHPHVQALVPPVVACVGDPFYKITSEALLVTQQLVKVIRPLDQPSSFDATPYIKDLFTCTIKRLKAADIDQEVKERAISCMGQIICNLGDNLGSDLPNTLQIFLERLKNEITRLTTVKALTLIAGSPLKIDLRPVLGEGVPILASFLRKNQRALKLGTLSALDILIKNYSDSLTAAMIDAVLDELPPLISESDMHVSQMAISFLTTLAKVYPSSLSKISGSILNELIGLVRSPLLQGGALSAMLDFFQALVVTGTNNLGYMDLLRMLTGPVYSQSTALTHKQSYYSIAKCVAALTRACPKEGPAVVGQFIQDVKNSRSTDSIRLLALLSLGEVGHHIDLSGQLELKSVILEAFSSPSEEVKSAASYALGSISVGNLPEYLPFVLQEITSQPKRQYLLLHSLKEIISSASVVGLKPYVENIWALLLKHCECAEEGTRNVVAECLGKLTLIDPETLLPRLKGYLISGSSYARSSVVTAVKFTISDHPQPIDPLLKNCIGDFLKTLEDPDLNVRRVALVTFNSAAHNKPSLIRDLLDTVLPHLYNETKVRKELIREVEMGPFKHTVDDGLDIRKAAFECMYTLLDSCLDRLDIFEFLNHVEDGLKDHYDIKMLTFLMLVRLSTLCPSAVLQRLDRLVEPLRATCTTKVKANSVKQEFEKQDELKRSAMRAVAALLTIPEAEKSPLMSEFQSQISSNPELAAIFESIQKDSSSTNLESMDTS | 0.8231 | -0.08455 |
